Results published in PubChem BioAssay AID602296 (Broad Institute, 2012).
Among all 2,000 compounds or so, about 190 (9.5%) were called active. Inconclusive results (about 14%) are left out.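 The calls were made as follows: active = fitted activation curve crossing 40% at a concentration no higher than the sample's top valid tested dose; inconclusive = flat fitted curve at 30% to 70% activation, or poor curve fit; inactive = signal decrease, flat curve within 30%, or the rest.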 Most of the strongest results are missing from this list.

Assay: sustained heat shock response element induction – cell-based, mouse, luciferase, cherry-pick, dose, confirmation (AID 602296);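 also: test compounds applied by themselves with no MG132 co-treatment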
Conditions: NIH3T3-HGL HSF-1 response element luciferase, 48 h; at 26 µM (top of the series) unless noted

activation, inactive:
CCCCn1c(O)c(/C=C2\C=NN=C2c2ccccc2)sc1=S -17.1%, COCCn1c(C)cc(C(=O)COC(=O)c2ccc(-n3nc(C)cc3C)cc2)c1C -6.84%, COc1ccccc1NC(=O)CN1CCN(CC(=O)Nc2ccccc2Cl)CC1 -13%, COc1ccc(C2N(C(=O)CN3CCCC3)CCCN2S(=O)(=O)c2ccccc2)cc1 (stereo not given) 8.31%, Cc1ccc(NC(=O)c2sc(N)nc2-c2ccc([N+](=O)[O-])cc2)c(C)c1 -8.25%, Cc1[nH]n(-c2ccccc2)c(=O)c1C(C[N+](=O)[O-])c1ccc(F)cc1 (stereo not given) -47.7%, COc1ccc(N2CCN(C(c3cccs3)C(C)NS(=O)(=O)c3ccccc3)CC2)cc1 (stereo not given) -37.6%, CC(=O)Nc1ccc(C2=NN(Cc3nnc(-c4ccccc4)o3)C(=O)SC2)cc1 13%, O=C/C=C/c1c(-c2ccccc2)cc2oc3ccccc3cc1-2 -78.8%, Cc1cc(F)ccc1NCc1cc2c(cc1[N+](=O)[O-])OCO2 1.55%, COc1cc2[nH]c(=S)nc(NCc3cccs3)c2cc1OC -18.2%, COc1cc(/C=C/C(=O)N2CCOCC2)ccc1OCc1ccccc1 -6.72%, Nc1nnnn1CC(=O)N/N=C/c1ccccn1 5.51%, COc1cc(/C=C(\C#N)C(=O)NC2CCCCC2C)ccc1OS(=O)(=O)c1ccc(C)cc1 (stereo not given) -107%, CCOc1ccc(CNC(=O)c2cccc(NC(=O)C3=C(C)OCCS3)c2)cc1 -15.6%, Cc1cc(C)n(-c2nc3ccccc3nc2N2CCN(C(=O)c3ccc(F)cc3)CC2)n1 -13.6%, O=C(CCl)Nc1cccc(Oc2ccccc2)c1 -97.6%, Cc1ccc(C2C(C#N)=C(N)SC(N)=C2C#N)c(C)c1 -31%, CC(=O)Nc1ccccc1OC(C)C(=O)N1CC(C)CC(C)C1 (stereo not given) 5.82%, NS(=O)(=O)c1ccc(CCNC(=O)c2ccc([N+](=O)[O-])s2)cc1 -4.33%, COc1ccc(N2C(=O)CC(Sc3nnnn3-c3ccc(F)cc3)C2=O)cc1 (stereo not given) -104%, COCCn1c(N)c(N(Cc2ccccc2)C(=O)c2ccc(C#N)cc2)c(=O)[nH]c1=O -1.83%, Nc1nc2ccccc2n1/N=C/c1ccc([N+](=O)[O-])s1 -35.6%, Cc1c(CNCCc2ccccc2)c(C(=O)O)c(C)n1-c1ccccc1 5.58%, CCC(NC(=O)/C(=C\c1ccc2c(c1)OCO2)NC(C)=O)C(=O)O (stereo not given) -1.08%
